# In PubChem BioAssay AID2685 (National Center for Advancing Translational Sciences (NCATS), 2010):
# Where “and” joins values, the source holds several entries; their conditions need not be identical. Equal values may be shown once. This is one part of the list. Shown are side measurements of this screen, not its main read-out; they come without a call. Most of these compounds were active or inconclusive in the main read-out, so they are no random draw. Words in brackets tell the shape of the fitted curve; partial curves, single points and poor fits give uncertain potencies.
# Assay: qHTS Assay for Lipid Storage Modulators in Drosophila S3 Cells;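 on cell number change: cells counted by Cell Tracker Red CMTPX staining in the red channel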
# Conditions: BODIPY lipid droplet fluorescence, 18-24 h; for cell number change: measured here: cell count max response, cells fed with added oleic acid
# Procedure, shortened: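 Drosophila S3 cells loaded with oleic acid (400 uM, as added) and compounds at several concentrations; lipid droplets imaged by 488-nm laser-scanning cytometry, 500–530 nm intensity and object ratio to cell channel. Percent activity normalized to 20 uM Triacsin C.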
# [1] = measured here: lipid fluorescence (Fed channel) AC50, cells fed with added oleic acid
# [2] = measured here: cell number channel AC50, cells fed with added oleic acid
smiles,measurement,setting,value
Cc1cc(C(=O)N2CCCC(C(=O)c3cc(F)ccc3F)C2)c(C)o1 (centres undefined),cell number change,,-11.6%
same,AC50,[1],"0.291 µM [falling, full curve, poor fit]"
CC(C)N(C)C1CCN(S(=O)(=O)c2ccc(-c3ccc(=O)[nH]n3)s2)CC1,cell number change,,-2.45%
same,AC50,[1],"7.31 µM [falling, full curve, poor fit]"
CC(C)O/C(=N\S(=O)(=O)c1ccc(Cl)cc1)c1ccccc1,cell number change,,-31.5%
same,AC50,[2],"0.13 µM [falling, full curve]"
same,AC50,[1],"0.731 µM [falling, partial curve, poor fit]"
CC/C(=N\NC(C)=O)c1ccc(OC(F)F)cc1,cell number change,,-11.7%
same,AC50,[1],"6.51 µM [falling, full curve, poor fit]"
COc1ccc(NC(=S)NNC(=O)COc2ccc(Cl)cc2Cl)cc1,cell number change,,-25.2%
same,AC50,[1],"29.1 µM [falling, single point]"
CCC(CC)C1=NN2C(=N)/C(=C/c3ccc(OC(=O)c4ccco4)cc3)C(=O)N=C2S1,cell number change,,-0.298%
same,AC50,[1],"2.31 µM [rising, partial curve]"
Cc1cccc(NC(=O)c2ccc(Cn3cc(C(F)(F)F)ccc3=O)cc2)c1,cell number change,,19.8%
same,AC50,[1],"2.91 µM [falling, single point]"
CC(NCc1ccc2c(c1)OCO2)c1ccccc1 (centres undefined),cell number change,,17.1%
same,AC50,[1],"0.461 µM [rising, full curve, poor fit]"
CCOc1cc(C(=O)OCc2ccc([N+](=O)[O-])cc2)ccc1OCC(=O)N1CCOCC1,cell number change,,37%
same,AC50,[1],"7.31 µM [rising, partial curve]"
O=C(NCc1cccs1)c1noc2c1CCCC2,cell number change,,9.04%
CCCn1c(C)cc(C(=O)CN2C(=O)c3cccc(N)c3C2=O)c1C,cell number change,,31.4%
same,AC50,[2],"2.06 µM [rising, single point]"
CCOC(=O)C1CCCN(c2c(N3CCN(C)CC3)c(=O)c2=O)C1 (centres undefined),cell number change,,-22.2%
same,AC50,[2],"0.651 µM [falling, full curve, poor fit]"
same,AC50,[1],"11.6 µM [falling, partial curve]"
O=C(Cn1nc2n(c1=O)-c1ccccc1SC2)N/N=C/c1ccncc1,cell number change,,39.3%
same,AC50,[2],"3.26 µM [rising, full curve]"
same,AC50,[1],"2.91 µM [rising, full curve]"
COc1ccc(S(=O)(=O)N[C@@H](CSCc2ccccc2)C(=O)O)cc1,cell number change,,15.9%
same,AC50,[1],"6.51 µM [falling, single point]"
O=S(=O)(Nc1nc2ccccc2nc1NCCO)c1cccc(Cl)c1,cell number change,,26.3%
COc1ccc(-c2c(-c3cc(OC)cc(OC)c3)n(C)c3ccc(-c4ccc(OC)nc4)cc23)cc1,cell number change,,-8.28%
same,AC50,[2],"0.00461 µM [rising, full curve, poor fit]"
Cc1cc(C)c(NC(=O)CN2C(=O)NC3(CCCc4ccccc43)C2=O)c(Cl)c1 (centres undefined),cell number change,,2.81%
same,AC50,[2],"0.116 µM [rising, full curve, poor fit]"
COc1ccc(NC(=O)COC(=O)c2ccc(OC)c(S(=O)(=O)N3CCCC3)c2)cc1OC,cell number change,,-9.97%
same,AC50,[2],"6.51 µM [rising, single point]"
same,AC50,[1],"6.51 µM [rising, partial curve]"
COc1cc(/C=C(\C#N)C(=O)N2CCCCC2)ccc1O,cell number change,,-1.4%
Cc1cccc(C)c1NC(=O)COC(=O)Cc1ccsc1,cell number change,,10.3%
same,AC50,[1],"0.326 µM [falling, single point]"
O=C(O)c1cn(-c2ccc(F)cc2)c(=O)c2ccccc12,cell number change,,-37.5%
same,AC50,[2],"29.1 µM [falling, single point]"
CC(=O)Nc1cccc(C(=O)OCCCOc2ccc(F)cc2)c1,cell number change,,36.5%
same,AC50,[2],"12.6 µM [rising, partial curve, poor fit]"
O=C(OCCCc1cc2ccccc2c(=O)o1)c1ccccc1C(F)(F)F,cell number change,,-7.01%
same,AC50,[1],"0.517 µM [rising, single point]"
CC(C)(C)OC(=O)N1CCN(C(=O)c2[nH]cnc2C(=O)Nc2cccc(Cl)c2)CC1,cell number change,,-46.7%
same,AC50,[2],"4.61 µM [falling, single point]"
same,AC50,[1],"29.1 µM [falling, single point]"
CC(C(=O)c1ccc(-c2ccccc2)cc1)[n+]1cccc(C(N)=O)c1 (centres undefined),cell number change,,-14.3%
O=C(COC(=O)c1ccc(Cl)s1)c1ccc[nH]1,cell number change,,-16.1%
CCCOc1ccc(NC(=O)CC2C(=O)N(c3ccc(OCC)cc3)C(=S)N2C2CC2)cc1 (centres undefined),cell number change,,76.5%
same,AC50,[2],"29.1 µM [rising, single point]"
O=C(Nc1cccc(Cl)c1)c1cnn2cccnc12,cell number change,,234%
same,AC50,[2],"9.2 µM [rising, partial curve]"
same,AC50,[1],"2.91 µM [rising, partial curve]"
CC(C)(c1ccccc1)c1ccc(OCC2CO2)cc1 (centres undefined),cell number change,,13.3%
Cc1oc(CC(C)C)cc1C(=O)Nc1cccc2ccccc12,cell number change,,-9.51%
same,AC50,[2],"6.51 µM [rising, single point]"
same,AC50,[1],"23.1 µM [falling, single point]"
CC1CCC(C(C)C)C(OC(=O)Cn2c(-c3ccc(Br)cc3)[n+](C)c3ccccc32)C1 (centres undefined),cell number change,,-57.9% and -60.8%
same,AC50,[2],"5.17 µM [falling, full curve] and 206 nM [falling, full curve, poor fit]"
same,AC50,[1],"5.8 µM [falling, full curve] and 1.3 µM [falling, full curve]"
COc1ccc(-c2nc3c(s2)CCc2onc(-c4ccc(OC)cc4)c2-3)cc1,cell number change,,32.6%
same,AC50,[2],"18.4 µM [rising, single point]"
Cc1ccc2ccc(C)[n+](CCCS(=O)(=O)[O-])c2c1,AC50,[2],"1.03 µM [falling, full curve]"
same,AC50,[1],"1.03 µM [falling, full curve]"
Cc1oc2c(c(C)cc3oc(=O)c(CC(=O)NCC(=O)NCC(=O)O)c(C)c32)c1C,cell number change,,3.78%
same,AC50,[1],"9.2 µM [falling, partial curve]"
CCS(=O)(=O)N1CCC(C(=O)NCC2CCCO2)CC1 (centres undefined),cell number change,,40.7%
same,AC50,[2],"0.231 µM [rising, full curve]"
same,AC50,[1],"0.103 µM [rising, full curve, poor fit]"
O=C(Cc1ccc(NS(=O)(=O)c2cccc(C(F)(F)F)c2)cc1)NCCN1CCOCC1,cell number change,,10.8%

# Laid out differently: entries from further up
smiles | measurement | setting | value
CC(=O)Nc1cccc(C(=O)OCCCOc2ccc(F)cc2)c1 | cell number change |  | 36.5%
same | AC50 | [2] | 12.6 µM [rising, partial curve, poor fit]
O=C(OCCCc1cc2ccccc2c(=O)o1)c1ccccc1C(F)(F)F | cell number change |  | -7.01%
same | AC50 | [1] | 0.517 µM [rising, single point]
CC(C)(C)OC(=O)N1CCN(C(=O)c2[nH]cnc2C(=O)Nc2cccc(Cl)c2)CC1 | cell number change |  | -46.7%
same | AC50 | [2] | 4.61 µM [falling, single point]
same | AC50 | [1] | 29.1 µM [falling, single point]
CC(C(=O)c1ccc(-c2ccccc2)cc1)[n+]1cccc(C(N)=O)c1 (centres undefined) | cell number change |  | -14.3%
O=C(COC(=O)c1ccc(Cl)s1)c1ccc[nH]1 | cell number change |  | -16.1%
CCCOc1ccc(NC(=O)CC2C(=O)N(c3ccc(OCC)cc3)C(=S)N2C2CC2)cc1 (centres undefined) | cell number change |  | 76.5%
same | AC50 | [2] | 29.1 µM [rising, single point]
O=C(Nc1cccc(Cl)c1)c1cnn2cccnc12 | cell number change |  | 234%
same | AC50 | [2] | 9.2 µM [rising, partial curve]
same | AC50 | [1] | 2.91 µM [rising, partial curve]
CC(C)(c1ccccc1)c1ccc(OCC2CO2)cc1 (centres undefined) | cell number change |  | 13.3%
Cc1oc(CC(C)C)cc1C(=O)Nc1cccc2ccccc12 | cell number change |  | -9.51%
same | AC50 | [2] | 6.51 µM [rising, single point]
same | AC50 | [1] | 23.1 µM [falling, single point]
CC1CCC(C(C)C)C(OC(=O)Cn2c(-c3ccc(Br)cc3)[n+](C)c3ccccc32)C1 (centres undefined) | cell number change |  | -57.9% and -60.8%
same | AC50 | [2] | 5.17 µM [falling, full curve] and 206 nM [falling, full curve, poor fit]
same | AC50 | [1] | 5.8 µM [falling, full curve] and 1.3 µM [falling, full curve]
COc1ccc(-c2nc3c(s2)CCc2onc(-c4ccc(OC)cc4)c2-3)cc1 | cell number change |  | 32.6%
same | AC50 | [2] | 18.4 µM [rising, single point]
